In patent US20200317769A1:
Results are given in words; binding and its absence hold for the method and conditions named. Some results given as binding are weak or reduced against the parent protein; the word gives no strength.

Sequences of proteins named here, by UniProt entry; tags and fusion partners are left off. A change or cut given only in a name is not applied to a line headed by its entry.
UniProt P01375: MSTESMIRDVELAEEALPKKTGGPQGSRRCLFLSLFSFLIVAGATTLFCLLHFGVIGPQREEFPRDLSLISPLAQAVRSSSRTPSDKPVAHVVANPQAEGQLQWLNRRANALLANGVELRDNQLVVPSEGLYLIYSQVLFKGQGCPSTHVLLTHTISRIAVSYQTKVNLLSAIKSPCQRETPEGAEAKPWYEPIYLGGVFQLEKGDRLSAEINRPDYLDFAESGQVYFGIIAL

Molecular target: soluble human TNF-alpha (human) (UniProt P01375)
Experiment: competition ELISA, adalimumab coated, human TNF-alpha with VHH; competitor adalimumab

| binding | Binder |
| --- | --- |
| binds | Q65E12 (VHH, not shown: small tags and cut ends) VHH: EVQLVESGGGLVQPGGSLRLSCSASGFDFSIHWMYWVRQAPGKELEWVAEINTNGLITLYADSVKGRFTASRDNAKNALFLQMNDLKFEDTAVYYCAKSRNGAAGGQGTQVTVSS |
| binds | Q62F10 (VHH, not shown: small tags and cut ends) VHH: EVQLVESGGGLVQPGGSLRLSCVASGFDFNIHWMYWVRQAPGKELEWVAEINTNGLITVYPDSVKGRFTISRDNAKNTLFLQMNNLKFEDTAVYYCTNTQNGKTKGQGTQVTVSS |
| binds | Q65A3 (VHH, not shown: small tags and cut ends) VHH: EVQLVESGGGLVQPGGSLRPSCTTSGLDFGIHWMYWFRQAPGKELEWVAEINTNALITKYADSVKGRFTISRDNAKNTLFLQMNDLKSEDTAVYYCSNTQNGAAKGQGVQVTVSS |
